Data from patent US20070212733A1.
These are yes or no findings as the source states them, for the method shown. Some entries that bind do so weakly or less than the wild type.

By UniProt entry, the sequences of proteins in these tests, tags left out. Residues count along the entry.
UniProt Q9WU72, residues 127-309: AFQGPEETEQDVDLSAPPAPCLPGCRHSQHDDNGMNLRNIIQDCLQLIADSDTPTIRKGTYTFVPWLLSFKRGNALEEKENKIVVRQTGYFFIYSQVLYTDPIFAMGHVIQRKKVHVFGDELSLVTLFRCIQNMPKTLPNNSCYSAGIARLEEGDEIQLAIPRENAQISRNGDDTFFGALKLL
UniProt Q02223, residues 5-51: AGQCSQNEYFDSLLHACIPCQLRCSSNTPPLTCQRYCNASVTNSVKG

Biological target: mouse BAFF (Genentech, Inc.) (mouse) (UniProt Q9WU72)
Experiment: sandwich ELISA; human BCMA-Fc coated at 0.5 ug/mL captures mouse BAFF (serum samples and standard curve)

Q: How did the binding turn out when “human BCMA-Fc (Genentech, Inc.) (from UniProt Q02223 5-51) (Fc fusion)” was run?
A: The binding was “binds”.
